# Data as given in the supplement of paper PMC8728848.
# This is one part of the list.
# B1: CREG (Mus musculus), O88668 (protein)
# chain: MAARAPELARSLLAALLAPALVALLVSPASGRGGRDHGDWDVDRRLPPLPPREDGPRVARFVTHVSDWGSLATISTIKEVRGWPFADIISISDGPPGEGTGEPYMYLSPLQQAVSDLQENPEATLTMSLAQTVYCRNHGFDPQSPLCVHIMMSGTVTKVNKTEEDYARDSLFVRHPEMKHWPSSHNWFFAKLKISRIWVLDYFGGPKVVTPEEYFNVTLQ
# How the values were obtained:
# Test in all cases: glycan array binding signal (z-score within array); higher = stronger binding
# Conditions in all cases: glycan notation: IUPAC condensed, linker removed
# [1] = biological target: Gal3S(b1-4)[Fuc(a1-3)]Glc
# Outline: (§1)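 The binding signal is a Z-score computed within each array and averaged over linkers. Arrays of the same protein sequence at different concentrations or buffers were also averaged together. Data originate from 3228 arrays in the Consortium for Functional Glycomics database, kept only where the protein sequence was available.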
# [2] = biological target: Gal3S(b1-4)[Fuc(a1-3)]Glc6S
# Outline: as §1
# [3] = biological target: Gal3S4S(b1-4)GlcNAc
# Outline: as §1
# [4] = biological target: Gal3S6S(b1-4)GlcNAc
# Outline: as §1
# [5] = biological target: Gal3S6S(b1-4)GlcNAc6S
# Outline: as §1
# [6] = biological target: Gal4S(b1-4)GlcNAc
# Outline: as §1
# [7] = biological target: Gal4S6S(b1-4)GlcNAc
# Outline: as §1
# [8] = biological target: Gal6S(b1-4)Glc
# Outline: as §1
# [9] = biological target: Gal6S(b1-4)Glc6S
# Outline: as §1
# [10] = biological target: Gal6S(b1-4)GlcNAc
# Outline: as §1
# [11] = biological target: Gal6S(b1-4)GlcNAc6S
# Outline: as §1
# [12] = biological target: GalNAc(a1-3)Gal
# Outline: as §1
# [13] = biological target: GalNAc(a1-3)GalNAc
# Outline: as §1
# [14] = biological target: GalNAc(a1-3)GalNAc(a1-3)Gal(a1-4)Gal(b1-4)GlcNAc
# Outline: as §1
# [15] = biological target: GalNAc(b1-3)Gal
# Outline: as §1
# [16] = biological target: GalNAc(b1-3)Gal(a1-4)Gal(b1-4)GlcNAc
# Outline: as §1
# [17] = biological target: GalNAc(b1-3)Gal(a1-4)Gal(b1-4)GlcNAc(b1-3)Gal(b1-4)Glc
# Outline: as §1
# [18] = biological target: GalNAc(b1-3)Gal(a1-6)Gal(b1-4)Glc
# Outline: as §1
# [19] = biological target: GalNAc(b1-3)GalNAc
# Outline: as §1
# [20] = biological target: GalNAc(b1-4)GlcNAc
# Outline: as §1
# [21] = biological target: GalNAc(b1-4)GlcNAc(b1-2)Man(a1-3)[GalNAc(b1-4)GlcNAc(b1-2)Man(a1-6)]Man(b1-4)GlcNAc(b1-4)GlcNAc
# Outline: as §1
# [22] = biological target: Glc(a1-4)Glc
# Outline: as §1
# [23] = biological target: Glc(a1-6)Glc(a1-6)Glc
# Outline: as §1
# [24] = biological target: Glc(b1-4)Glc
# Outline: as §1
# [25] = biological target: Glc(b1-6)Glc
# Outline: as §1
# [26] = biological target: GlcA(b1-3)Gal
# Outline: as §1
# [27] = biological target: GlcA(b1-3)GlcNAc
# Outline: as §1
# [28] = biological target: GlcA(b1-6)Gal
# Outline: as §1
# [29] = biological target: GlcNAc(a1-3)Gal(b1-4)GlcNAc
# Outline: as §1
# [30] = biological target: GlcNAc(a1-4)Gal(b1-3)GlcNAc
# Outline: as §1
# [31] = biological target: GlcNAc(a1-4)Gal(b1-4)GalNAc
# Outline: as §1
# [32] = biological target: GlcNAc(a1-4)Gal(b1-4)GlcNAc
# Outline: as §1
# [33] = biological target: GlcNAc(a1-4)Gal(b1-4)GlcNAc(b1-3)Gal(b1-4)Glc
# Outline: as §1
# [34] = biological target: GlcNAc(a1-4)Gal(b1-4)GlcNAc(b1-3)Gal(b1-4)GlcNAc
# Outline: as §1
# [35] = biological target: GlcNAc(a1-4)Gal(b1-4)GlcNAc(b1-3)Gal(b1-4)GlcNAc(b1-3)Gal(b1-4)GlcNAc
# Outline: as §1
# [36] = biological target: GlcNAc(a1-4)Gal(b1-4)GlcNAc(b1-3)Gal(b1-4)[Fuc(a1-3)]GlcNAc(b1-3)Gal(b1-4)[Fuc(a1-3)]GlcNAc
# Outline: as §1
# [37] = biological target: GlcNAc(a1-6)Gal(b1-4)GlcNAc
# Outline: as §1
# [38] = biological target: GlcNAc(b1-2)Gal(b1-3)GalNAc
# Outline: as §1
# [39] = biological target: GlcNAc(b1-2)Man(a1-3)[GlcNAc(b1-2)Man(a1-6)]Man(b1-4)GlcNAc(b1-4)GlcNAc
# Outline: as §1
# [40] = biological target: GlcNAc(b1-2)Man(a1-3)[GlcNAc(b1-2)Man(a1-6)]Man(b1-4)GlcNAc(b1-4)[Fuc(a1-6)]GlcNAc
# Outline: as §1
# [41] = biological target: GlcNAc(b1-2)[GlcNAc(b1-4)]Man(a1-3)[GlcNAc(b1-2)Man(a1-6)]Man(b1-4)GlcNAc(b1-4)GlcNAc
# Outline: as §1
# [42] = biological target: GlcNAc(b1-3)Gal
# Outline: as §1
binder,measurement,setting,value
B1,glycan array binding signal (z-score),[1],1.16
same,glycan array binding signal (z-score),[2],-0.481
same,glycan array binding signal (z-score),[3],-1.12
same,glycan array binding signal (z-score),[4],1.52
same,glycan array binding signal (z-score),[5],2.03
same,glycan array binding signal (z-score),[6],-0.336
same,glycan array binding signal (z-score),[7],1.01
same,glycan array binding signal (z-score),[8],0.007
same,glycan array binding signal (z-score),[9],-0.154
same,glycan array binding signal (z-score),[10],0.82
same,glycan array binding signal (z-score),[11],0.545
same,glycan array binding signal (z-score),[12],-0.005
same,glycan array binding signal (z-score),[13],2.01
same,glycan array binding signal (z-score),[14],-0.587
same,glycan array binding signal (z-score),[15],-0.19
same,glycan array binding signal (z-score),[16],0.053
same,glycan array binding signal (z-score),[17],1.6
same,glycan array binding signal (z-score),[18],-1.02
same,glycan array binding signal (z-score),[19],0.524
same,glycan array binding signal (z-score),[20],-0.002
same,glycan array binding signal (z-score),[21],2.87
same,glycan array binding signal (z-score),[22],-1
same,glycan array binding signal (z-score),[23],-1.19
same,glycan array binding signal (z-score),[24],-1.11
same,glycan array binding signal (z-score),[25],-0.061
same,glycan array binding signal (z-score),[26],0.668
same,glycan array binding signal (z-score),[27],-0.256
same,glycan array binding signal (z-score),[28],-0.711
same,glycan array binding signal (z-score),[29],0.096
same,glycan array binding signal (z-score),[30],0.454
same,glycan array binding signal (z-score),[31],-0.155
same,glycan array binding signal (z-score),[32],0.745
same,glycan array binding signal (z-score),[33],-0.012
same,glycan array binding signal (z-score),[34],2.35
same,glycan array binding signal (z-score),[35],-1.27
same,glycan array binding signal (z-score),[36],-1.72
same,glycan array binding signal (z-score),[37],-0.206
same,glycan array binding signal (z-score),[38],-0.651
same,glycan array binding signal (z-score),[39],0.15
same,glycan array binding signal (z-score),[40],3.8
same,glycan array binding signal (z-score),[41],0.708
same,glycan array binding signal (z-score),[42],0.243

# Part of the list above, with tabs.
binder	measurement	setting	value
B1	glycan array binding signal (z-score)	[14]	-0.587
same	glycan array binding signal (z-score)	[23]	-1.19
same	glycan array binding signal (z-score)	[41]	0.708
